{
  "source": "paper PMC4085599",
  "about": "“Preliminary Studies on Validation of Calu-3 Cell Line as a Model for Screening Respiratory Mucosa Irritation and Toxicity” (Pharmaceutics, 2014)",
  "tested_on": "Calu-3 cells",
  "assay": "MTT cell viability assay on Calu-3 cells after exposure to test solutions",
  "format": "cell-based, Human",
  "conditions": "0.2% w/v, 60 min exposure",
  "protocol": "The Calu-3 cells were used at passages 5–10. They were cultured in 96-well plates (Fisher Scientific) in 1:1 DMEM/F-12 supplemented with 10% FBS, 1% Glutamax®, 100 U/mL penicillin, and […] streptomycin using our previously described method. The tissue culture medium was changed every two days.\nIrritant selection, concentration and exposure time were based on mucociliary clearance time and published work in which the compounds were used. […] In order to provide a basis for comparison with other published work using other models three concentrations of the chemicals were selected (0.2%, 0.4% and 1.0%). […] Subsequently, the effect of the test compounds on the cells was determined using MTT assay.\nCell viability screening was based on cellular mitochondrial dehydrogenase (MDH) activity, measured by MTT reduction and conversion to blue formazan salt that was quantified after extraction from cells. […] Extracted formazan salt was quantified spectrophotometrically at 570 nm using Synergy™ HT multimode microplate reader (BioTek Instruments Incorporated). The absorbance of isopropyl alcohol (100 μL) was used as blank. The reduction of cell viability in treated cells was compared to negative control (cells incubated with DMEM/F-12) and expressed as a percentage. […]",
  "data": [
    {"smiles": "CCCCCCCCCCCCCCCC[n+]1ccccc1", "note": "[Cetylpyridinium bromide]", "values": [
      {"measurement": "Calu-3 cells killed", "value": "more than 90%"}
    ]}
  ]
}
